No constants are given. Whether binding was seen depends on the method and setting. In cells and extracts the contact can be indirect. Here binding means that the protein was enriched with, or labelled near, the bait; the list need not be complete.
Molecular target: T1, TAP-tag-GFP-SH3BP2 (mouse) (UniProt Q06649)
T1 sequence: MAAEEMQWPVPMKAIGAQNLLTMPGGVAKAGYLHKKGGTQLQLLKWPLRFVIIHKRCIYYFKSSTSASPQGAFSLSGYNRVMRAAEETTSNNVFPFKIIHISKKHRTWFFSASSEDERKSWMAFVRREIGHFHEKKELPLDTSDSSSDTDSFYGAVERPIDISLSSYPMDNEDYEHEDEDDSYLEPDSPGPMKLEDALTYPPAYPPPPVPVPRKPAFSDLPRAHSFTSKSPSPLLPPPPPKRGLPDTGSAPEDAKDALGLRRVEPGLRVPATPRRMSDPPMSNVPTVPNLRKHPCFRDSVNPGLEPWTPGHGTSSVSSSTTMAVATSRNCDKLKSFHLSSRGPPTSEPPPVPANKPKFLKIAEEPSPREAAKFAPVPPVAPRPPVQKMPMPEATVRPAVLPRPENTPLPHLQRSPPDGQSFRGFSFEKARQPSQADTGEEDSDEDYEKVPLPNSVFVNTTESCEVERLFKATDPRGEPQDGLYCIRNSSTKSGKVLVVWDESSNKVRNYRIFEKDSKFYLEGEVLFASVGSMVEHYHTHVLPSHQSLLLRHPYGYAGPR
Test: affinity purification with mass spectrometry

Row | binding | Substance
1 | binds | α subunit of AChR (endogenous, C2C12 myotubes) (from UniProt P04756 21-457)
2 | binds | γ subunit of AChR (endogenous, C2C12 myotubes) (from UniProt P04760 23-519)
